# Laboratory results: PubChem BioAssay AID602196 (INSERM, 2012)
# Aim: 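Knock-downs that protect lung cancer cells from cisplatin or sensitise them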
# System: human A549 lung cancer cells
# Reagents: siRNA pair against human genes
# Timing: 48 h transfection before cisplatin; time from cisplatin to read-out not stated
# Treatment: cisplatin at a dose killing half of control-siRNA cells; exact dose and duration not given
# Read-out: 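Cisplatin cell death as a shift from the 50% death seen with control siRNA; siRNAs toxic or growth-blocking alone scored 0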
# Reading the numbers: two-siRNA summed score (-2 to +2): higher = both siRNAs protect from cisplatin killing; -2 means both sensitise; mean protection from cisplatin (shift in death): higher = protection from cisplatin killing
# Call rule: 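Each siRNA scores 0 if harmful alone by LDH or WST-1, otherwise +1 if it reduces and -1 if it increases cisplatin killing; a gene is active when both siRNAs agree (sum +2 or -2)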
# Meaning of the calls: active = both siRNAs shift cisplatin killing the same way; inactive = no consistent shift, or siRNA harmful alone
# Here is one part, drawn at random, of about 23,000 reagents tested. 455 of them (2%) were called active. 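Active includes both protection and sensitisation; some change values fall well beyond the stated -50 to +50 range.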 Reagents against one gene are numbered here. Not all columns of the deposit are shown. The record does not give: the amount of reagent.
Target gene,reagent,two-siRNA summed score (-2 to +2),mean protection from cisplatin (shift in death) (%),activity call
LOC149297,1,1,10.3,inactive
AFTPH (aftiphilin),1,-1,-9.6,inactive
PAQR7 (progestin and adipoQ receptor family member 7),1,0,4.1,inactive
"BAX (BCL2 associated X, apoptosis regulator)",1,1,1.8,inactive
COX18 (cytochrome c oxidase assembly factor COX18),1,0,12.1,inactive
LOC441652,1,0,7.7,inactive
KIFC1 (kinesin family member C1),1,0,3.2,inactive
ZNF292 (zinc finger protein 292),1,0,18.8,inactive
LCE1C (late cornified envelope 1C),1,2,20.5,active
IFT20 (intraflagellar transport 20),1,0,17.1,inactive
"RAB19 (RAB19, member RAS oncogene family)",1,0,1.6,inactive
TUBGCP6 (tubulin gamma complex component 6),1,-1,-1.2,inactive
SRCIN1 (SRC kinase signaling inhibitor 1),1,-1,-3.1,inactive
RPS27L (ribosomal protein S27 like),1,0,8.4,inactive
ACSS1 (acyl-CoA synthetase short chain family member 1),1,0,-5.1,inactive
PRODH2 (proline dehydrogenase 2),1,0,2.9,inactive
SFTPC (surfactant protein C),1,0,-3.9,inactive
HAPLN4 (hyaluronan and proteoglycan link protein 4),1,0,-5.9,inactive
SLC16A14,1,0,6,inactive
TMEM254 (transmembrane protein 254),1,0,0.5,inactive
MTCL3 (MTCL family member 3),1,0,6.7,inactive
PABPC4 (poly(A) binding protein cytoplasmic 4),1,0,-7.9,inactive
LOC388633,1,-1,-2.9,inactive
CYP2W1 (cytochrome P450 family 2 subfamily W member 1),1,0,6,inactive
SUN1 (Sad1 and UNC84 domain containing 1),1,-1,-8.9,inactive
TMSB15B (thymosin beta 15B),1,1,13.8,inactive
MAP2K1P2 (MAP2K1 pseudogene 2),1,0,5,inactive
FLRT3 (fibronectin leucine rich transmembrane protein 3),1,0,-2.5,inactive
MITF (melanocyte inducing transcription factor),1,0,-11.4,inactive
LOC387915,1,0,4.5,inactive
RERG (RAS like estrogen regulated growth inhibitor),1,1,12.7,inactive
FAM114A2 (family with sequence similarity 114 member A2),1,0,8.9,inactive
ARID1A (AT-rich interaction domain 1A),1,0,1.2,inactive
CMC2 (C-X9-C motif containing 2),1,0,-4.7,inactive
SULT1A3 (sulfotransferase family 1A member 3),1,0,-6.5,inactive
CIAPIN1 (cytokine induced apoptosis inhibitor 1),1,0,7.1,inactive
CLEC5A (C-type lectin domain containing 5A),1,0,-12.4,inactive
NANP (N-acetylneuraminic acid phosphatase),1,0,7.8,inactive
ABHD14A (abhydrolase domain containing 14A),1,0,11.6,inactive
ZKSCAN8 (zinc finger with KRAB and SCAN domains 8),1,1,16.7,inactive
CCL16 (C-C motif chemokine ligand 16),1,0,9.3,inactive
XPO4 (exportin 4),1,0,3.3,inactive
LOC440396,1,0,4.8,inactive
PLEK2 (pleckstrin 2),1,0,8.1,inactive
DRG1 (developmentally regulated GTP binding protein 1),1,0,-0.3,inactive
EML1 (EMAP like 1),1,0,5.8,inactive
PLPP3 (phospholipid phosphatase 3),1,0,1.5,inactive
GATAD1 (GATA zinc finger domain containing 1),1,-1,-13.9,inactive
AKTIP (AKT interacting protein),1,0,5.9,inactive
AKTIP (AKT interacting protein),2,0,8.8,inactive
TULP2 (TUB like protein 2),1,0,-1.8,inactive
MLYCD (malonyl-CoA decarboxylase),1,0,-22.6,inactive
SPTY2D1 (SPT2 chromatin protein domain containing 1),1,0,-10,inactive
CLVS1 (clavesin 1),1,0,-0.1,inactive
LOC388137,1,1,13.7,inactive
UMOD (uromodulin),1,0,8.3,inactive
LOC402330,1,1,19.3,inactive
LLGL1 (LLGL scribble cell polarity complex component 1),1,0,15.9,inactive
EMCN (endomucin),1,0,1.6,inactive
LOC442618,1,0,-0.2,inactive
C21orf91 (chromosome 21 open reading frame 91),1,0,-7.4,inactive
"MERTK (MER proto-oncogene, tyrosine kinase)",1,1,11.1,inactive
TMEM47 (transmembrane protein 47),1,0,8.6,inactive
MRPL3 (mitochondrial ribosomal protein L3),1,0,-9.2,inactive
TXNIP (thioredoxin interacting protein),1,0,-7.3,inactive
KLF16 (KLF transcription factor 16),1,0,-10.2,inactive
CIT (citron rho-interacting serine/threonine kinase),1,1,8.3,inactive
RPS29 (ribosomal protein S29),1,1,18.4,inactive
DHX15 (DEAH-box helicase 15),1,1,2,inactive
TERB2 (telomere repeat binding bouquet formation protein 2),1,0,8.6,inactive
ACP4 (acid phosphatase 4),1,0,1.6,inactive
SERPINB9 (serpin family B member 9),1,0,4,inactive
"PSMD2 (proteasome 26S subunit ubiquitin receptor, non-ATPase 2)",1,0,18.4,inactive
